Results on three substances are retold here after publication PMC10823689.

The target in assay [1] is T1, Peroxiredoxin 6 (PRDX6) (rat (endogenous in CTX-TNA2)) (UniProt O35244).
T1 sequence: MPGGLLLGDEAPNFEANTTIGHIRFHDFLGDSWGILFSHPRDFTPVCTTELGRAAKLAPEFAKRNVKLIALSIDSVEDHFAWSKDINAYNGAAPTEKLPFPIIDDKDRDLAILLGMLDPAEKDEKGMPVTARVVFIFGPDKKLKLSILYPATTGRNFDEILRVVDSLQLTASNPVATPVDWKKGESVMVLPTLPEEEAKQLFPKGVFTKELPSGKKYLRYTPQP
As to the kind of experiment: co-IP; lysates of wild-type CTX-TNA2 cells, control and after OGD/R; antibodies precoupled to protein G beads, overnight 4 °C; western blot. On the technique in general: A western blot detects proteins with antibodies after separation by electrophoresis.

For assay [2], the target named is T1, Peroxiredoxin 6 (PRDX6) (rat (endogenous in CTX-TNA2)). As to the kind of experiment: condition: only cells treated with U0126 (10 µM) after OGD; co-IP; lysates of wild-type CTX-TNA2 cells after OGD/R treated with U0126 (10 µM); western blot.
The target in assay [3] is T2, PRDX6 (overexpression plasmid, HEK293T) (UniProt O35244).
T2 sequence: T1 sequence
The assay can be described thus: co-IP; HEK293T cells transfected with overexpression plasmids (PRDX6, ERK, P38 or negative control), 48 h; co-immunoprecipitation and western blot.

Results are given in words; binding and its absence hold for the method and conditions named. In cells and extracts the contact can be indirect. For some of these results: Binding can be weak; no strength is given.

In the case of ERK (rat (endogenous in CTX-TNA2)), the binding entry in assay [1] was “binds”; in assay [2], “no binding”.

As to ERK (overexpression plasmid, HEK293T), the binding entry in assay [3] was “binds”.

For the substance P38 (overexpression plasmid, HEK293T), the binding entry in assay [3] is “binds”.
